Reference: the supplement of paper PMC10849652
Some of the results follow.

Chains of the proteins cited; added tags and fusions are not shown. Lines headed by an entry give the natural chain unless they say otherwise; changes in a name come on top.
UniProt Q8IYS2: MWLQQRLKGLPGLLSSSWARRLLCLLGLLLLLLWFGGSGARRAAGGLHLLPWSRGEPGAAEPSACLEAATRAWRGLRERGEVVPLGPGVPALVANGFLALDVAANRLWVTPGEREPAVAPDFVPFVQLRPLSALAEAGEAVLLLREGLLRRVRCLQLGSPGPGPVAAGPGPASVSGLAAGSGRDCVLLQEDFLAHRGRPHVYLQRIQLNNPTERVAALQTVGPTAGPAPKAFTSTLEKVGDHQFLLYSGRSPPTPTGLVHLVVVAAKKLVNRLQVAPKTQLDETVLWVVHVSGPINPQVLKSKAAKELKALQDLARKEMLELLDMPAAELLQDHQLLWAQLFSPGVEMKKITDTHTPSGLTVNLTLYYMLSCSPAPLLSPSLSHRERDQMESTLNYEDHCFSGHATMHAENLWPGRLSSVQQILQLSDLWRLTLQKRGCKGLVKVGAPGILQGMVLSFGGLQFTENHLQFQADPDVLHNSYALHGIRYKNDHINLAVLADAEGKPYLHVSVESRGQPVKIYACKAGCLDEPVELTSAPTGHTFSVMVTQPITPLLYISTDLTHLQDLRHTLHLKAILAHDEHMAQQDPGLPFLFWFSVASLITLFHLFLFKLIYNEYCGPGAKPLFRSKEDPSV
UniProt Q9Y664: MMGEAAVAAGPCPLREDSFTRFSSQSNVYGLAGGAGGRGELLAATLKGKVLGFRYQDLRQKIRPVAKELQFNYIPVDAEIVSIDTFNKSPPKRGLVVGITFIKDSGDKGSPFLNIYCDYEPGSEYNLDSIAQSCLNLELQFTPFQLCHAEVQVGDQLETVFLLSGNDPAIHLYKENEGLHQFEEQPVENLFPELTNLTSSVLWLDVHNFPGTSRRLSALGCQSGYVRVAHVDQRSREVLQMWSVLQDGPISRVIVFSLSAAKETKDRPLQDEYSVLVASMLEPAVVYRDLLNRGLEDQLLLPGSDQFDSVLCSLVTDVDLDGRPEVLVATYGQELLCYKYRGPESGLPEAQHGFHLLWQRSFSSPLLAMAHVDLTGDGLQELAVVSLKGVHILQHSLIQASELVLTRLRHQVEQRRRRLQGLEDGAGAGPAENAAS
UniProt Q14974, whole entry, looked up: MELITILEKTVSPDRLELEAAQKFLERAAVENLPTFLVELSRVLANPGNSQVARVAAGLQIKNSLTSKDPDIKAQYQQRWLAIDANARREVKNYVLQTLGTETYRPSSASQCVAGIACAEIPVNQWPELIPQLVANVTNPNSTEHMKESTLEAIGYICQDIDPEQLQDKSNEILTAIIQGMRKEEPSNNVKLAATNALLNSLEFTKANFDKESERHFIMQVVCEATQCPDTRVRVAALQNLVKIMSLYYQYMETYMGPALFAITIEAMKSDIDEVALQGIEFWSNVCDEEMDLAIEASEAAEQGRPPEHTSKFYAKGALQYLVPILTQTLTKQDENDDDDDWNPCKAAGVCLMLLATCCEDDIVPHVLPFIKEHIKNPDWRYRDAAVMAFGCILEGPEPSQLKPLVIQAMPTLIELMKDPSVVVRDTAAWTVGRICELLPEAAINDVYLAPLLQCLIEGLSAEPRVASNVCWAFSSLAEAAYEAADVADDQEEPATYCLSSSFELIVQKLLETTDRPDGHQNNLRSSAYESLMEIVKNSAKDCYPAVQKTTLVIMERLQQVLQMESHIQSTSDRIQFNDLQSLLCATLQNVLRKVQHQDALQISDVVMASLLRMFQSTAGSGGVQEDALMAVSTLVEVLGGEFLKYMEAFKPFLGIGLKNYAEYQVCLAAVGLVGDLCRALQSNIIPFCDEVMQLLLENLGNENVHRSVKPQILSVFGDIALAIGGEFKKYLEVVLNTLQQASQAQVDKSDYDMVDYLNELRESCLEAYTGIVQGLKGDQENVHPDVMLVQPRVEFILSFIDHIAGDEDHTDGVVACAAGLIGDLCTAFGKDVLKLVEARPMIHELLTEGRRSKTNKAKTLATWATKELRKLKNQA
UniProt Q9BQ90: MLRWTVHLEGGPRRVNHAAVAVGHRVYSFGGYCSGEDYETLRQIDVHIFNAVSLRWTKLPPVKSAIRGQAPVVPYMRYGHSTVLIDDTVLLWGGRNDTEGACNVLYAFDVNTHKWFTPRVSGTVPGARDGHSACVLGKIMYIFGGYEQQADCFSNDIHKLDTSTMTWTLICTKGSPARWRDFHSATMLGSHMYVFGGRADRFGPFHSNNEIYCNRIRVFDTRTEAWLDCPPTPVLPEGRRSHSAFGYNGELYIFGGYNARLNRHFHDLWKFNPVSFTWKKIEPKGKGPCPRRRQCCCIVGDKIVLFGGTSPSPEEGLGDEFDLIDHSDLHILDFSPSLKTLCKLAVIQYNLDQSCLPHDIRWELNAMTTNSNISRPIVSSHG
UniProt Q6YP21: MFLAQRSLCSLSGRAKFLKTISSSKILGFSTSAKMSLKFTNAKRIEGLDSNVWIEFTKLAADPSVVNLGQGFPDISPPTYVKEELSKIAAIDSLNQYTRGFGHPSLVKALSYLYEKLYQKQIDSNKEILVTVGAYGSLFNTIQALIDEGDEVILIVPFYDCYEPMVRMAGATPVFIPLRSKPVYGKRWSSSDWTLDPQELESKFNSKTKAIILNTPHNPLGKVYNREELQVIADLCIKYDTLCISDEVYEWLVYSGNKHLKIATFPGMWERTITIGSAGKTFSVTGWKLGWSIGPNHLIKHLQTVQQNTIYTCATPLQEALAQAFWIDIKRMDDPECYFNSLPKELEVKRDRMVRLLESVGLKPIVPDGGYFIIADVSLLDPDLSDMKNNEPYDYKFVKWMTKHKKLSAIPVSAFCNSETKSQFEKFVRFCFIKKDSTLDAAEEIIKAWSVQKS
UniProt Q71RC2, whole entry, looked up: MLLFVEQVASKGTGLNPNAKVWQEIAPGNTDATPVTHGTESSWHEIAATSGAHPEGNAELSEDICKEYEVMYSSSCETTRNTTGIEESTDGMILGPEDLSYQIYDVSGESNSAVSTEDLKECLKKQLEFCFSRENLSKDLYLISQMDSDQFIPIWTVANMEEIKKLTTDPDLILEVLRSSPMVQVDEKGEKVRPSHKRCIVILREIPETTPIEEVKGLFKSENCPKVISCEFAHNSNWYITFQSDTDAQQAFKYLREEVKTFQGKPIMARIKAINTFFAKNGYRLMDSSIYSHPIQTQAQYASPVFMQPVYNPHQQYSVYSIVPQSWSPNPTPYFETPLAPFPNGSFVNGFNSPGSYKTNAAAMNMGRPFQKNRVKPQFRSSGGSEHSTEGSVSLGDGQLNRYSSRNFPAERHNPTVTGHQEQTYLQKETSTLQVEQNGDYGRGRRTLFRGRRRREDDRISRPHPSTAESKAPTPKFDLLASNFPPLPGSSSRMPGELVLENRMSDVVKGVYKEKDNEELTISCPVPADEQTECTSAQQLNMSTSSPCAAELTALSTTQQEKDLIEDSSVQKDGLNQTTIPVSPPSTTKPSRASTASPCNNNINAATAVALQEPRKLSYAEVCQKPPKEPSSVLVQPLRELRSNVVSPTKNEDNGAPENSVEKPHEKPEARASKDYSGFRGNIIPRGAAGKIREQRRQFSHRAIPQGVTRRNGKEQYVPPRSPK
UniProt Q12840: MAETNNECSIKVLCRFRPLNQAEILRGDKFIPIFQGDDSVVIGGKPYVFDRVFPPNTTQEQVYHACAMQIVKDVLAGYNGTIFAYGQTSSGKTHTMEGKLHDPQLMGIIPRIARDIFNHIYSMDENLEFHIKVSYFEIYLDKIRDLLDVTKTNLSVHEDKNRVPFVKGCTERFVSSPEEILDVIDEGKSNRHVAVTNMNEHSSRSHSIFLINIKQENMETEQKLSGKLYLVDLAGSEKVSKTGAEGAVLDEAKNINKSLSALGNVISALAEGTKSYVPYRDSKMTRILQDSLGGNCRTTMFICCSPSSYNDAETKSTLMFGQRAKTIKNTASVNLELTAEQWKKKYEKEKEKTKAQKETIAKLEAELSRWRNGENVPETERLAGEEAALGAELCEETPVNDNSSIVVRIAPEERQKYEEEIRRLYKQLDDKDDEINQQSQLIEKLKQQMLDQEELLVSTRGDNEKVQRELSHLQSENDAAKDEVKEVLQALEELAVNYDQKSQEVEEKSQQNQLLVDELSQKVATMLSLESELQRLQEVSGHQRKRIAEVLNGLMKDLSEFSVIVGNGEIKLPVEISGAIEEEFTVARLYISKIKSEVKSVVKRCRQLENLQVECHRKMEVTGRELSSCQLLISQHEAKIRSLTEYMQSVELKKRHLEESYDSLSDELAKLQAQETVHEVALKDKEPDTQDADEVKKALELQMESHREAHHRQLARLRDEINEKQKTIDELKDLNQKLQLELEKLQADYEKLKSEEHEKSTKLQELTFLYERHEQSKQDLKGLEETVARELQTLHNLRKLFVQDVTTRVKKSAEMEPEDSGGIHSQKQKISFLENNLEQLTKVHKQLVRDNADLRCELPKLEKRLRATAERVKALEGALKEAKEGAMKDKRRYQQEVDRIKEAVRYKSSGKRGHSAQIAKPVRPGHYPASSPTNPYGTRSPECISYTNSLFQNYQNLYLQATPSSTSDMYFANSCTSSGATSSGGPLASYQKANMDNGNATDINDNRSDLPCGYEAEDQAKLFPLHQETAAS
UniProt Q96A73: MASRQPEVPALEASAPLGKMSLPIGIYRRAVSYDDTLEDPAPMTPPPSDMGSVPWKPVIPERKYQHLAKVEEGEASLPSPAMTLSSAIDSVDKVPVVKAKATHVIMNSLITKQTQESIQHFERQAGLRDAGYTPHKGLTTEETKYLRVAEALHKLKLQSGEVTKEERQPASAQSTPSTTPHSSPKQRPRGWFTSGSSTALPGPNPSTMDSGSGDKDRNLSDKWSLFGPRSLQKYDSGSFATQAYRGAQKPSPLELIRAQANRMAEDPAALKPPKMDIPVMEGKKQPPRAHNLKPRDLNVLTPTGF
UniProt O00139: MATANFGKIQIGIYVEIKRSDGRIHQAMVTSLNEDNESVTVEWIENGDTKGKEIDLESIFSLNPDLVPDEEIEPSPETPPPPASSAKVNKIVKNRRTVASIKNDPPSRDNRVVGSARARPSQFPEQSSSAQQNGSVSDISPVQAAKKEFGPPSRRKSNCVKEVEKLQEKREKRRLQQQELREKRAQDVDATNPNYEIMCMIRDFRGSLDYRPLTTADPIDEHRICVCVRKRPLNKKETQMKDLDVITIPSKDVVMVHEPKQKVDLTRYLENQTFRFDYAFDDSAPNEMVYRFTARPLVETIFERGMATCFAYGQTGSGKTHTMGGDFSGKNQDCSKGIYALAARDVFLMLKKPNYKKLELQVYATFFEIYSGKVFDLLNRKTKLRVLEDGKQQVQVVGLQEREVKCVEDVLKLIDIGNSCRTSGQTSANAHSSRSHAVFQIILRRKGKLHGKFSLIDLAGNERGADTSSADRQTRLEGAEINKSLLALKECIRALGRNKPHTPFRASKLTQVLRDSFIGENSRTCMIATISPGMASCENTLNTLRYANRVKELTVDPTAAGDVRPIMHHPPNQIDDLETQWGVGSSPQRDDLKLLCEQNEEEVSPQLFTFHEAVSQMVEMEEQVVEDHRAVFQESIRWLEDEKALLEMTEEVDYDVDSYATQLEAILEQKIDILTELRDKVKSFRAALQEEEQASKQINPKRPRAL
UniProt A8MWY0: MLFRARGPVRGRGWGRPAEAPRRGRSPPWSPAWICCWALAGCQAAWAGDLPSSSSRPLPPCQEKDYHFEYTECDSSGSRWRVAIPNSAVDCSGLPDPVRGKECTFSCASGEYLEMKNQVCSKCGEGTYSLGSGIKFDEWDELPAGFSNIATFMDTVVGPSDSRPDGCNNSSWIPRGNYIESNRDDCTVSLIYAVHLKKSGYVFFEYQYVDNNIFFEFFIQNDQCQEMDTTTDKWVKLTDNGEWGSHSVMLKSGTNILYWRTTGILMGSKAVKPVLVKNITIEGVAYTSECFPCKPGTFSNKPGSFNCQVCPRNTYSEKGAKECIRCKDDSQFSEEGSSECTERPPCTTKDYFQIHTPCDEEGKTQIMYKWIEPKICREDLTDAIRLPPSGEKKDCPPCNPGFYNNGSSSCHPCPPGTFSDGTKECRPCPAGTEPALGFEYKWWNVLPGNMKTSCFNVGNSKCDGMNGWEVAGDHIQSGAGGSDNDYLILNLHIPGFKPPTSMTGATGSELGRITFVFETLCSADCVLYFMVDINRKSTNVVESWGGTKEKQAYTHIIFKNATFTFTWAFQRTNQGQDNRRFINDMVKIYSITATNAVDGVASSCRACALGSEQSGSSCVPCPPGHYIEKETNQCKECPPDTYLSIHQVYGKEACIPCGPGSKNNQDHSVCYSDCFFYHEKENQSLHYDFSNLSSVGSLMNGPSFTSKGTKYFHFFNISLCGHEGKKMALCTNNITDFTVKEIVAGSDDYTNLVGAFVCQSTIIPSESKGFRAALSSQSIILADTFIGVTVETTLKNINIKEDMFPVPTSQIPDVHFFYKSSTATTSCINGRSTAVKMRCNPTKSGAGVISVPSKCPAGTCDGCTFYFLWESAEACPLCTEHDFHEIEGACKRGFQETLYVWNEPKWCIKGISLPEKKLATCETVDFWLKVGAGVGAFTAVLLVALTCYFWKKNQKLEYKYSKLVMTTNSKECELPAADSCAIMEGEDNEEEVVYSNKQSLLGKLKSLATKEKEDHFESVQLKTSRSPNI

compound: C1=CC=C2C(=C1)C3=NNC4=CC=CC(=C43)C2=O; test: log2 fold change, soluble protein after heating vs DMSO (PISA); higher = thermal stabilisation; K562 lysate, 10 uM; active = over 0.2 and 3.5 SD of the protein, either way, in both replicates (recomputed)
Summary of the method: (§1)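 K562 pellets were dounce-homogenised in PBS pH 7.4 with 1 mM MgCl2, and the crude extract at 1 mg/mL protein was treated with 10 μM compound for 30 min. Aliquots were heated for 3 min across 48°C-58°C, pooled, and brought to 0.5% NP-40 at 4°C; soluble protein was the supernatant after 21,000xg for 90 min. Soluble protein was quantified by TMTpro 16plex LC-MS/MS with channel sums equalised, and reported as log2 fold change in thermal stability against DMSO controls, with values from duplicates.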

log2 fold change, inactive:
KLHDC4 (UniProt Q8TBB5) 0.008
KIF5B (UniProt P33176) -0.02
KIAA2013 (UniProt Q8IYS2) -0.002
KIF1B isoform 2 (UniProt O60333) -0.033
KTI12 (UniProt Q96EK9) -0.149
KDSR (UniProt Q06136) -0.041
KIF2C (UniProt Q99661) -0.033
LANCL1 (UniProt O43813) -0.014
KPTN (UniProt Q9Y664) 0.064
LARP7 isoform 3 (UniProt Q4G0J3) 0.012
KDM8 isoform 3 (UniProt Q8N371) 0.033
KEAP1 (UniProt Q14145) -0.006
KLC2 (UniProt Q9H0B6) -0.061
KPNB1 (UniProt Q14974) -0.012
KSR1 (UniProt Q8IVT5) -0.078
KPNA2 (UniProt P52292) -0.053
KLHDC3 (UniProt Q9BQ90) 0.176
KYAT3 (UniProt Q6YP21) -0.004
LARP4 isoform 4 (UniProt Q71RC2) 0.012
KIF5A (UniProt Q12840) -0.014
KIAA1191 (UniProt Q96A73) -0.081
KIF2A isoform 4 (UniProt O00139) -0.022
KIAA1324L (UniProt A8MWY0) 0.013
KLHL18 (UniProt O94889) -0.064
KIF15 (UniProt Q9NS87) -0.054
KRR1 (UniProt Q13601) 0.045
LACTB (UniProt P83111) 0.006
KXD1 (UniProt Q9BQD3) -0.018
KMT2D isoform 3 (UniProt O14686) -0.006
KYAT1 (UniProt Q16773) 0.006
KIN (UniProt O60870) -0.114
LAMTOR4 (UniProt Q0VGL1) -0.031

compound: C1CCN(C1)C(=O)NC2=CC=CC(=C2)NC3=NC=C(C(=N3)NCCC4=CN=CN4)Br; test: as above
Summary of the method: as §1

log2 fold change, inactive:
KLHDC4 (UniProt Q8TBB5) 0.028
KIF5B (UniProt P33176) 0.005
KIAA2013 (UniProt Q8IYS2) -0.021
KIF1B isoform 2 (UniProt O60333) 0
KTI12 (UniProt Q96EK9) -0.046
KDSR (UniProt Q06136) 0.016
KIF2C (UniProt Q99661) 0.015
LANCL1 (UniProt O43813) -0.007
KPTN (UniProt Q9Y664) 0.031
LARP7 isoform 3 (UniProt Q4G0J3) -0.002
KDM8 isoform 3 (UniProt Q8N371) 0.021
KEAP1 (UniProt Q14145) 0.038
KLC2 (UniProt Q9H0B6) -0.048
KPNB1 (UniProt Q14974) -0.005
KSR1 (UniProt Q8IVT5) 0.015
KPNA2 (UniProt P52292) -0.017
KLHDC3 (UniProt Q9BQ90) -0.085
KYAT3 (UniProt Q6YP21) -0.013
LARP4 isoform 4 (UniProt Q71RC2) 0.061
KIF5A (UniProt Q12840) -0.033
KIAA1191 (UniProt Q96A73) -0.081
KIF2A isoform 4 (UniProt O00139) -0.02
KIAA1324L (UniProt A8MWY0) -0.06
KLHL18 (UniProt O94889) -0.042
KIF15 (UniProt Q9NS87) -0.04
KRR1 (UniProt Q13601) -0.032
LACTB (UniProt P83111) 0.014
KXD1 (UniProt Q9BQD3) 0.034
KMT2D isoform 3 (UniProt O14686) -0.004
KYAT1 (UniProt Q16773) 0.028
KIN (UniProt O60870) -0.008
LAMTOR4 (UniProt Q0VGL1) -0.033

compound: C1CN(CCC1(CC2=CC=C(C=C2)Cl)N)C3=NC=NC4=C3C=CN4; test: as above
Summary of the method: as §1

log2 fold change, inactive:
KLHDC4 (UniProt Q8TBB5) -0.023
KIF5B (UniProt P33176) 0.004
KIAA2013 (UniProt Q8IYS2) -0.021
KIF1B isoform 2 (UniProt O60333) 0.023
KTI12 (UniProt Q96EK9) 0.056
KDSR (UniProt Q06136) -0.006
KIF2C (UniProt Q99661) -0.006
LANCL1 (UniProt O43813) -0.009
KPTN (UniProt Q9Y664) 0.02
LARP7 isoform 3 (UniProt Q4G0J3) -0.017
KDM8 isoform 3 (UniProt Q8N371) 0.035
KEAP1 (UniProt Q14145) 0.018
KLC2 (UniProt Q9H0B6) -0.056
KPNB1 (UniProt Q14974) 0.029
KSR1 (UniProt Q8IVT5) -0.037
KPNA2 (UniProt P52292) 0.013
KLHDC3 (UniProt Q9BQ90) -0.046
KYAT3 (UniProt Q6YP21) -0.01
LARP4 isoform 4 (UniProt Q71RC2) -0.032
KIF5A (UniProt Q12840) -0.004
KIAA1191 (UniProt Q96A73) 0.039
KIF2A isoform 4 (UniProt O00139) -0.041
KIAA1324L (UniProt A8MWY0) 0.02
KLHL18 (UniProt O94889) 0.026
KIF15 (UniProt Q9NS87) -0.019
KRR1 (UniProt Q13601) 0.06
LACTB (UniProt P83111) -0.033
KXD1 (UniProt Q9BQD3) -0.01
KMT2D isoform 3 (UniProt O14686) -0.016
KYAT1 (UniProt Q16773) -0.007
KIN (UniProt O60870) -0.008
LAMTOR4 (UniProt Q0VGL1) -0.016
